The list is a part of this screen's results and no random one: it is rich in T/C values a quarter to a half above the control, in often repeated tests (any T/C) and in doses without a T/C. Further doses and runs are listed elsewhere. T/C: endpoint of the treated group in % of that of the vehicle group. Some doses have a count of surviving animals in place of a T/C: the source files T/C as zero there, which appears to mark a toxic dose or a test without result, not a measured value. Some survivor counts are full or nearly so, which does not show that the dose was tolerated: the source hardly ever lists a survival T/C far under the control, and the zero likely stands for such cases as well. Survivors were counted at the toxicity check, usually on the fifth day, unless a day is given; later deaths do not show. Schedules are NCI's codes, taken here to give the interval after Q, in days (D) or hours (H), and the number of doses after X. Some entries were tested several times; the values are given in rising order. Where survival is the endpoint, this PubChem deposit counts one and a half times the control or more as active, and values a quarter to a half above the control carry no call in these data; other NCI protocols may use other cut-offs. Some T/C values are followed by the survivors on the day toxicity was checked, most often the fifth; where none is given, no animal had died by that day.
Tested on: L1210 leukemia ip in BDF1 mice, survival T/C
Test: NCI In Vivo Anticancer Drug Screen. Data for tumor model L1210 Leukemia (intraperitoneal) in B6D2F1 (BDF1) mice
Conditions: T/C endpoint: median survival time, vehicle: saline, higher T/C = longer survival
[1] = dose: 1024.0 mg/kg/injection, schedule: Q01DX001 (oral)

N[C@H](C(=O)O)[C@@H]1CC(Cl)=NO1
T/C (dose: 0.39 mg/kg/injection, schedule: Q03HX016 (ip)): 136 % of control | T/C (dose: 0.5 mg/kg/injection, schedule: Q03HX024 (ip)): 139 % of control | T/C (dose: 0.78 mg/kg/injection, schedule: Q03HX008 (ip)): 130 % of control | T/C (dose: 1.0 mg/kg/injection, schedule: Q01DX009 (ip)): 132 % of control | T/C (dose: 1.0 mg/kg/injection, schedule: Q03HX016 (ip)): 135 % of control | T/C (dose: 1.56 mg/kg/injection, schedule: Q01DX009 (ip)): 133 % of control | T/C (dose: 1.56 mg/kg/injection, schedule: Q03HX008 (ip)): 146 % of control [9 of 10 alive] | T/C (dose: 1.56 mg/kg/injection, schedule: Q03HX024 (ip)): 148 % of control | T/C (dose: 2.0 mg/kg/injection, schedule: Q01DX009 (ip)): 139 % of control | T/C (dose: 2.0 mg/kg/injection, schedule: Q01DX009 (sc)): 133 % of control | T/C (dose: 2.0 mg/kg/injection, schedule: Q03HX008 (ip)): 129 % of control | T/C (dose: 3.12 mg/kg/injection, schedule: Q03HX024 (ip)): 148 % of control [9 of 10 alive] | T/C (dose: 4.0 mg/kg/injection, schedule: Q01DX009 (sc)): 138 % of control | T/C (dose: 4.0 mg/kg/injection, schedule: Q03HX008 (ip)): 130 % of control | survivor count (dose: 6.25 mg/kg/injection, schedule: Q01DX009 (ip)): 9 of 10 | T/C (dose: 6.25 mg/kg/injection, schedule: Q03HX008 (ip)): 145 % of control | T/C (dose: 6.25 mg/kg/injection, schedule: Q03HX024 (ip)): 127 % of control | T/C (dose: 6.25 mg/kg/injection, schedule: Q04DX003 (ip)): 144 % of control | T/C (dose: 8.0 mg/kg/injection, schedule: Q01DX009 (oral)): 135 % of control | T/C (dose: 8.0 mg/kg/injection, schedule: Q03HX008 (ip)): 126 % of control [9 of 10 alive] | T/C (dose: 8.0 mg/kg/injection, schedule: Q04DX003 (ip)): 133 % of control | survivor count (dose: 12.5 mg/kg/injection, schedule: Q01DX009 (ip)): 9 of 10 | T/C (dose: 12.5 mg/kg/injection, schedule: Q03HX008 (ip)): 126 % of control [6 of 9 alive] | T/C (dose: 16.0 mg/kg/injection, schedule: Q01DX009 (ip)): 135 % of control | survivor count (dose: 16.0 mg/kg/injection, schedule: Q01DX009 (oral)): 9 of 10 | T/C (dose: 16.0 mg/kg/injection, schedule: Q03HX008 (ip)): 133 % of control | survivor count (dose: 25.0 mg/kg/injection, schedule: Q03HX008 (ip)): 8 of 10 | survivor count (dose: 25.0 mg/kg/injection, schedule: Q03HX016 (ip)): 6 of 10 | T/C (dose: 25.0 mg/kg/injection, schedule: Q08DX002 (ip)): 131 % of control | survivor count (dose: 32.0 mg/kg/injection, schedule: Q01DX009 (oral)): 9 of 10 and 10 of 10 | survivor count (dose: 32.0 mg/kg/injection, schedule: Q01DX009 (sc)): 9 of 10 | T/C (dose: 32.0 mg/kg/injection, schedule: Q03HX008 (ip)): 135 % of control | T/C (dose: 32.0 mg/kg/injection, schedule: Q04DX003 (ip)): 133 % of control | survivor count (dose: 50.0 mg/kg/injection, schedule: Q03HX008 (ip)): 4 of 10 | survivor count (dose: 64.0 mg/kg/injection, schedule: Q01DX009 (oral)): 3 of 10 and 10 of 10 | T/C (dose: 64.0 mg/kg/injection, schedule: Q04DX003 (ip)): 142 % of control | T/C (dose: 100.0 mg/kg/injection, schedule: Q01DX001 (ip)): 137 % of control | T/C (dose: 100.0 mg/kg/injection, schedule: Q04DX003 (ip)): 135 % of control | T/C (dose: 128.0 mg/kg/injection, schedule: Q01DX001 (oral)): 129 % of control | survivor count (dose: 128.0 mg/kg/injection, schedule: Q01DX009 (oral)): 5 of 10 and 9 of 10 | survivor count (dose: 200.0 mg/kg/injection, schedule: Q01DX001 (ip)): 9 of 10 | T/C (dose: 200.0 mg/kg/injection, schedule: Q08DX002 (ip)): 144 % of control | T/C (dose: 256.0 mg/kg/injection, schedule: Q01DX001 (oral)): 126 % of control | T/C (dose: 512.0 mg/kg/injection, schedule: Q01DX001 (oral)): 129 and 133 % of control | T/C [1]: 135 % of control [9 of 10 alive] | survivor count [1]: 6 of 10

— PubChem BioAssay AID248 (DTP/NCI, 2004)
